Measurements from paper PMC8394137.
These are yes or no findings as the source states them, for the method shown. Binding seen in cells or lysates may run through a third protein. Some binding calls cover weakened binding; strength is not graded here. Sequences can lack the tags named with a protein.

Protein sequences, listed by entry. Tags and fused reporters are not part of them.
UniProt O43736: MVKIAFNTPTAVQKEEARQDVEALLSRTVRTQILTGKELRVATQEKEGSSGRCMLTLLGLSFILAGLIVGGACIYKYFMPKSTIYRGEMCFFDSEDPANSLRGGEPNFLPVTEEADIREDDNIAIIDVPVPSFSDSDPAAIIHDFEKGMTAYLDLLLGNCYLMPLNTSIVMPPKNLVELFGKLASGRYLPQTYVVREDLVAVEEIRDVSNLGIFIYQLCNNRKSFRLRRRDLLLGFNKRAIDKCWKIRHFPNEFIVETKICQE

T1: full-length PTCH1-HA (human) (UniProt Q13635)
T1 sequence: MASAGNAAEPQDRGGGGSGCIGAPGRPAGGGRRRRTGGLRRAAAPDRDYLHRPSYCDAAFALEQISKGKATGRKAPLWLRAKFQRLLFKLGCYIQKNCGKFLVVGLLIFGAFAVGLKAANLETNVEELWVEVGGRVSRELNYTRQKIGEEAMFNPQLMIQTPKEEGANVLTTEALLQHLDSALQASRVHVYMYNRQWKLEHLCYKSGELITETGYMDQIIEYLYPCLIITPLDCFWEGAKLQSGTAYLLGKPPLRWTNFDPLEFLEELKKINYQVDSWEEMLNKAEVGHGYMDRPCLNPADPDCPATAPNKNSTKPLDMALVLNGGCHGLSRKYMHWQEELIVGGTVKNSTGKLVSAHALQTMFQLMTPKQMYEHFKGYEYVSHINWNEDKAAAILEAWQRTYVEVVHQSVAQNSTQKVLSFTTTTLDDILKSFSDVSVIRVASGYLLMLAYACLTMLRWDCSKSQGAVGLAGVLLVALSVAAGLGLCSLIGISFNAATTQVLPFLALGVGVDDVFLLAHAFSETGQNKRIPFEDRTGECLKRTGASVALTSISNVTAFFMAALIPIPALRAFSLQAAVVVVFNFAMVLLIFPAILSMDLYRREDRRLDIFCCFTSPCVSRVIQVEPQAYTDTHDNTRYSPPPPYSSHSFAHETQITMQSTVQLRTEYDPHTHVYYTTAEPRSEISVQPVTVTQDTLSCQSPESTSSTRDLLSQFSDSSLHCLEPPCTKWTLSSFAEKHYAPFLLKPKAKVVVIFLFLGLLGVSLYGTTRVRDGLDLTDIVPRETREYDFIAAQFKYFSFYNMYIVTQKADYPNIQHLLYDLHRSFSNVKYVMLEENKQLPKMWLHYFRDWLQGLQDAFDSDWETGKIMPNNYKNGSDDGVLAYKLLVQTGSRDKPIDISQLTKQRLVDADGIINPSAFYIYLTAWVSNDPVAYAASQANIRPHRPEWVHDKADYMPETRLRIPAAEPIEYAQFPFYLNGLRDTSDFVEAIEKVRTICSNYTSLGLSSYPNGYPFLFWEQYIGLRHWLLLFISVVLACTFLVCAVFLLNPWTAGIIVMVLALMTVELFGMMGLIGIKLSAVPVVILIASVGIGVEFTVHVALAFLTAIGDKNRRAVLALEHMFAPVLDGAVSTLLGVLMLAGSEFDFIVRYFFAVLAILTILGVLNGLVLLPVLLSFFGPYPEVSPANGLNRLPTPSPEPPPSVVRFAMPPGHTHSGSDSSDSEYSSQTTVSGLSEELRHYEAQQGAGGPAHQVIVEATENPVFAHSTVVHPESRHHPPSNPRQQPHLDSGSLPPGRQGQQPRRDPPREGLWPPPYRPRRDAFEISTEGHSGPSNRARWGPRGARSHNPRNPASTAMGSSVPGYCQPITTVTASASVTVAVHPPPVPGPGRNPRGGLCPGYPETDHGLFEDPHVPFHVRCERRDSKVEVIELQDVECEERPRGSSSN


Legend:
[1] = target: T1, full-length PTCH1-HA (human); assay: co-IP; HEK293 co-transfected with two plasmids, lysed 24 h later in 50 mM Tris HCl pH 7.5, 150 mM NaCl, 1% NP-40, 0.05% sodium deoxycholate, 1 mM EDTA; anti-tag antibody (anti-HA or anti-myc) and Dynabeads Protein G at 4 °C; Western blot for the other tag
[2] = target: myc-tagged ITM2A (integral membrane protein 2A) (UniProt O43736); assay: as above

binding [1]	binding [2]	Molecule
binds	binds	myc-tagged ITM2A (integral membrane protein 2A) (from UniProt O43736 1-263)
	binds	full-length PTCH1-HA (receptor, UniProt Q13635 1-1447) MASAGNAAEPQDRGGGGSGCIGAPGRPAGGGRRRRTGGLRRAAAPDRDYLHRPSYCDAAFALEQISKGKATGRKAPLWLRAKFQRLLFKLGCYIQKNCGKFLVVGLLIFGAFAVGLKAANLETNVEELWVEVGGRVSRELNYTRQKIGEEAMFNPQLMIQTPKEEGANVLTTEALLQHLDSALQASRVHVYMYNRQWKLEHLCYKSGELITETGYMDQIIEYLYPCLIITPLDCFWEGAKLQSGTAYLLGKPPLRWTNFDPLEFLEELKKINYQVDSWEEMLNKAEVGHGYMDRPCLNPADPDCPATAPNKNSTKPLDMALVLNGGCHGLSRKYMHWQEELIVGGTVKNSTGKLVSAHALQTMFQLMTPKQMYEHFKGYEYVSHINWNEDKAAAILEAWQRTYVEVVHQSVAQNSTQKVLSFTTTTLDDILKSFSDVSVIRVASGYLLMLAYACLTMLRWDCSKSQGAVGLAGVLLVALSVAAGLGLCSLIGISFNAATTQVLPFLALGVGVDDVFLLAHAFSETGQNKRIPFEDRTGECLKRTGASVALTSISNVTAFFMAALIPIPALRAFSLQAAVVVVFNFAMVLLIFPAILSMDLYRREDRRLDIFCCFTSPCVSRVIQVEPQAYTDTHDNTRYSPPPPYSSHSFAHETQITMQSTVQLRTEYDPHTHVYYTTAEPRSEISVQPVTVTQDTLSCQSPESTSSTRDLLSQFSDSSLHCLEPPCTKWTLSSFAEKHYAPFLLKPKAKVVVIFLFLGLLGVSLYGTTRVRDGLDLTDIVPRETREYDFIAAQFKYFSFYNMYIVTQKADYPNIQHLLYDLHRSFSNVKYVMLEENKQLPKMWLHYFRDWLQGLQDAFDSDWETGKIMPNNYKNGSDDGVLAYKLLVQTGSRDKPIDISQLTKQRLVDADGIINPSAFYIYLTAWVSNDPVAYAASQANIRPHRPEWVHDKADYMPETRLRIPAAEPIEYAQFPFYLNGLRDTSDFVEAIEKVRTICSNYTSLGLSSYPNGYPFLFWEQYIGLRHWLLLFISVVLACTFLVCAVFLLNPWTAGIIVMVLALMTVELFGMMGLIGIKLSAVPVVILIASVGIGVEFTVHVALAFLTAIGDKNRRAVLALEHMFAPVLDGAVSTLLGVLMLAGSEFDFIVRYFFAVLAILTILGVLNGLVLLPVLLSFFGPYPEVSPANGLNRLPTPSPEPPPSVVRFAMPPGHTHSGSDSSDSEYSSQTTVSGLSEELRHYEAQQGAGGPAHQVIVEATENPVFAHSTVVHPESRHHPPSNPRQQPHLDSGSLPPGRQGQQPRRDPPREGLWPPPYRPRRDAFEISTEGHSGPSNRARWGPRGARSHNPRNPASTAMGSSVPGYCQPITTVTASASVTVAVHPPPVPGPGRNPRGGLCPGYPETDHGLFEDPHVPFHVRCERRDSKVEVIELQDVECEERPRGSSSN
	binds	full-length PTCH1-eGFP (receptor, UniProt Q13635 1-1447) MASAGNAAEPQDRGGGGSGCIGAPGRPAGGGRRRRTGGLRRAAAPDRDYLHRPSYCDAAFALEQISKGKATGRKAPLWLRAKFQRLLFKLGCYIQKNCGKFLVVGLLIFGAFAVGLKAANLETNVEELWVEVGGRVSRELNYTRQKIGEEAMFNPQLMIQTPKEEGANVLTTEALLQHLDSALQASRVHVYMYNRQWKLEHLCYKSGELITETGYMDQIIEYLYPCLIITPLDCFWEGAKLQSGTAYLLGKPPLRWTNFDPLEFLEELKKINYQVDSWEEMLNKAEVGHGYMDRPCLNPADPDCPATAPNKNSTKPLDMALVLNGGCHGLSRKYMHWQEELIVGGTVKNSTGKLVSAHALQTMFQLMTPKQMYEHFKGYEYVSHINWNEDKAAAILEAWQRTYVEVVHQSVAQNSTQKVLSFTTTTLDDILKSFSDVSVIRVASGYLLMLAYACLTMLRWDCSKSQGAVGLAGVLLVALSVAAGLGLCSLIGISFNAATTQVLPFLALGVGVDDVFLLAHAFSETGQNKRIPFEDRTGECLKRTGASVALTSISNVTAFFMAALIPIPALRAFSLQAAVVVVFNFAMVLLIFPAILSMDLYRREDRRLDIFCCFTSPCVSRVIQVEPQAYTDTHDNTRYSPPPPYSSHSFAHETQITMQSTVQLRTEYDPHTHVYYTTAEPRSEISVQPVTVTQDTLSCQSPESTSSTRDLLSQFSDSSLHCLEPPCTKWTLSSFAEKHYAPFLLKPKAKVVVIFLFLGLLGVSLYGTTRVRDGLDLTDIVPRETREYDFIAAQFKYFSFYNMYIVTQKADYPNIQHLLYDLHRSFSNVKYVMLEENKQLPKMWLHYFRDWLQGLQDAFDSDWETGKIMPNNYKNGSDDGVLAYKLLVQTGSRDKPIDISQLTKQRLVDADGIINPSAFYIYLTAWVSNDPVAYAASQANIRPHRPEWVHDKADYMPETRLRIPAAEPIEYAQFPFYLNGLRDTSDFVEAIEKVRTICSNYTSLGLSSYPNGYPFLFWEQYIGLRHWLLLFISVVLACTFLVCAVFLLNPWTAGIIVMVLALMTVELFGMMGLIGIKLSAVPVVILIASVGIGVEFTVHVALAFLTAIGDKNRRAVLALEHMFAPVLDGAVSTLLGVLMLAGSEFDFIVRYFFAVLAILTILGVLNGLVLLPVLLSFFGPYPEVSPANGLNRLPTPSPEPPPSVVRFAMPPGHTHSGSDSSDSEYSSQTTVSGLSEELRHYEAQQGAGGPAHQVIVEATENPVFAHSTVVHPESRHHPPSNPRQQPHLDSGSLPPGRQGQQPRRDPPREGLWPPPYRPRRDAFEISTEGHSGPSNRARWGPRGARSHNPRNPASTAMGSSVPGYCQPITTVTASASVTVAVHPPPVPGPGRNPRGGLCPGYPETDHGLFEDPHVPFHVRCERRDSKVEVIELQDVECEERPRGSSSN
